These are yes or no findings as the source states them, for the method shown. In cells and extracts the contact can be indirect. Here binding means that the protein was enriched with, or labelled near, the bait; the list need not be complete. Where a sequence is shown, tags or fusion partners need not be part of it.

This test deals with T1, eGFP-tagged Myosin-1b (pEGFP Myo1b) (UniProt Q05096).
T1 sequence: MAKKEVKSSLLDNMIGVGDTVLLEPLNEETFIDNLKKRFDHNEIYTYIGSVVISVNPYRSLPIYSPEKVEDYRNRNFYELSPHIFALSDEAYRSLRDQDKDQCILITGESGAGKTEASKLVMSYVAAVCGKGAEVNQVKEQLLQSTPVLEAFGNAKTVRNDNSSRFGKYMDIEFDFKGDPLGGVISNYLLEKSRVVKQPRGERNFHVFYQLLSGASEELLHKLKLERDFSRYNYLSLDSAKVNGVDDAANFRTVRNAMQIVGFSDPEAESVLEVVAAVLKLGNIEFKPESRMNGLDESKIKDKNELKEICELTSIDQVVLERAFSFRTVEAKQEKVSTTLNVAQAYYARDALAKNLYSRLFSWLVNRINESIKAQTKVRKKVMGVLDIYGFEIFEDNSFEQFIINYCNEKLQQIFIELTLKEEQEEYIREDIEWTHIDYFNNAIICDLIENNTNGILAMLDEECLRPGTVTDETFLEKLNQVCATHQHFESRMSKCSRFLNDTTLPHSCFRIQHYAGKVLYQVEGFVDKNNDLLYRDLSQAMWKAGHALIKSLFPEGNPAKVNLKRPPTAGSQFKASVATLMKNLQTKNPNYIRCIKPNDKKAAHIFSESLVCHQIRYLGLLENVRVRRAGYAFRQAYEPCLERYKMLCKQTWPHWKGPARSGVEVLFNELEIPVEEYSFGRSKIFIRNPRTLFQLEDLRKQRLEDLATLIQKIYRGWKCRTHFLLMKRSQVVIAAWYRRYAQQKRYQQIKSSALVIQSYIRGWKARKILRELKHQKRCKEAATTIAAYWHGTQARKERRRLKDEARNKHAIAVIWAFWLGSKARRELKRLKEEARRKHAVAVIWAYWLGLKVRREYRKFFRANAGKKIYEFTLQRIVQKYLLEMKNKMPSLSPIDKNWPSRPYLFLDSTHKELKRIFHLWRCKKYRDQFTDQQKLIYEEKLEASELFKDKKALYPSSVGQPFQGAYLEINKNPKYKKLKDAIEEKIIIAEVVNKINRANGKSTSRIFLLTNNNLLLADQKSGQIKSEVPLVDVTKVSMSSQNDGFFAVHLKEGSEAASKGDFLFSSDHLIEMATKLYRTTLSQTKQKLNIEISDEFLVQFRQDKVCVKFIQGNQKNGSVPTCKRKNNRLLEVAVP
Kind of test: affinity purification with mass spectrometry.

B1: UNC45A (protein, UniProt Q99KD5 1-944)
chain: MTVSGPETPEPRPSDPGASSAEQLRKEGNELFKCGDYEGALTAYTQALSLGATPQDQAILHRNRAACHLKLEDYSKAESEASKAIEKDGGDVKALYRRSQALEKLGRLDQAVLDLKRCVSLEPKNKVFQESLRNIGGQIQEKVRYMSSTDAKVEQMFQILLDPKEKGTEKKQKASQNLVVLAREDAGAEKIFRSNGVQLLQRLLDTEETDLMLAALRTLVGICSEHQSRTVATLSVLGTRRVVSILGVENQAVSLAACHLLQVIFDALKEGVKKGFRGKEGAIIVDPARELKVLINSLLELLTEVGVSGQGRDNALTLLIKMVPRKSPKDPNNSLTLWVIDQGLKKILEVGGSLQDAAGELTVTANSRMSASILLSKLFDDLKCDAERENFHRLCENYIRNWFEGHGLAGKLRAIQTVSCLLQGPCDAGNRALELSGVMESVIALCASEREEEQLVAVEALIHAAGKAKRASFITANGVSLLKDLYKGSERDSIRIRALVGLCKLGSAGGTDFSMKQFAEGSTLKLAKQCRKWLCNDQIDAGTRRWAVEGLAYLTFDADVKEEFVEDEAALKALFQLSRSEERSVLFAVGSALVNCTNSYDYEEPDPKMVELAKYAKQHVPEQHPKDKPSFVRARVKKLLAAGVVSAMTCMVKTESPVLTNSCRELLSRVFLALVEEVEDRGTVVAQGGGKALLPLALEGTDVGQTKAAQALAKLTITSNPEMTFPGERIYEVVRPLVSLLHLSCSGLQNFEALMALTNLAGISERLRQKILKEKAVPMIEGYMFEEHEMIRRAATECMCNLAMSKEVQDLFEAQGNDRLKLLVLYSGEDDELLRRAAAGGLAMLTSMRPALCSRIPQVTTHWLEILQALLLSPNQELQHRGTVVVLNMMQSSKEIAGTLMESEVLEILSVLAKGEESPVTRAAAACLEKAVEYRLIQPNQDGE
For B1, the binding result is recorded as “binds”.

Values taken from doi:10.1101/2021.09.09.459609.
